# Measurements published in patent US9382226B2, “Aldosterone synthase inhibitors” (Merck Sharp & Dohme Corp., priority 2010, dated 2016).
# Some of these results come from one statement about several compounds together.
# Assays:
# human CYP11B1 = target: T1, human CYP11B1 (Homo sapiens, UniProt P15538); assay: V79-Human-CYP11B1 cell assay (cortisol formation, HTRF); format: cell-based
# T1 construct: expressed in transfected cells; host or cells: V79 cells (clone V79-hCYP11B1-8C7)
# T1 sequence (P15538 25-503): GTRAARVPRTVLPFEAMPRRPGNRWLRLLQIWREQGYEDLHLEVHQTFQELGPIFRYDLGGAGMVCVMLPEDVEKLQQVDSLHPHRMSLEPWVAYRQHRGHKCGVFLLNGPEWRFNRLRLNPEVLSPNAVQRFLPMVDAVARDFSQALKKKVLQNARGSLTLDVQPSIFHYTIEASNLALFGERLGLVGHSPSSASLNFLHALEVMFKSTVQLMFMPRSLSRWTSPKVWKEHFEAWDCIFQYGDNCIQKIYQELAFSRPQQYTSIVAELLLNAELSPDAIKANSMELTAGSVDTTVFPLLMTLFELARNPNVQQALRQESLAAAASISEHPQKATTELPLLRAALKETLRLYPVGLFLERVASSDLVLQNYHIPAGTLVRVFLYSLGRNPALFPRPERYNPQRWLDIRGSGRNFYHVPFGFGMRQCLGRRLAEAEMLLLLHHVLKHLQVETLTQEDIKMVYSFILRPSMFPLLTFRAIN
# Procedure: Methods for V79-Human-CYP11B2 and V79-Human-CYP11B1 Assays: V79 cell lines stably expressing the either the human CYP11B2 or the human CYP11B1 enzyme were generated using a standard transfection protocol. V79 cells were transfected with plasmids pTriEx3-Hygro-hCyp11B2 or pTriEx3-Hygro-hCyp11B1 using Lipofectamine2000 reagent. V79 cells that stably express the human CYP11B2 or human CYP11B1 enzyme were selected for and maintained in DMEM supplemented with 10% FBS and 400 μg/mL hygromycin for ˜2 weeks. Single cell clones were generated by […] in DMEM supplemented with 10% FBS and 400 μg/mL hygromycin until single colonies were obtained. […] For testing of inhibitors, cells were harvested at 80% confluency with 0.5% Trypsan-EDTA, washed once in PBS, and reconstituted in DMEM 0.1% BSA media at a cell concentration of 400,000 cells/mL. 25 μl of cells were added to a 384 well tissue culture treated plate and mixed with 0.25 μl of inhibitor or DMSO (1% final DMSO concentration) for 1 hour at 37° C., 5% CO2. […] The reaction was carried out for 3 hours at 37° C., 5% CO2 and was stopped by harvesting the supernatants. The amount of product in the supernatant (aldosterone for CYP11B2 assay and cortisol for the CYP11B1 assay) was measured using HTRF-based assay kit (Aldosterone HTRF-CisBio#64ALDPEB, Cortisol HTRF-CisBio #63IDC002-CORT). IC50's for the inhibitor were determined by plotting the amount of product formed against the concentration of inhibitor using sigmoidal dose-response curve (variable slope) fit in GraphPad.
# human CYP11B2 = target: T2, human CYP11B2 (Homo sapiens, UniProt P19099); assay: V79-Human-CYP11B2 cell assay (aldosterone formation, HTRF); format: cell-based; settings: V79 cells stably expressing human CYP11B2; substrate 125 nM 11-deoxycorticosterone; 3 hours
# T2 construct: expressed in transfected cells; host or cells: V79 cells (clone V79-hCYP11B2-CLE9)
# T2 sequence (P19099 25-503): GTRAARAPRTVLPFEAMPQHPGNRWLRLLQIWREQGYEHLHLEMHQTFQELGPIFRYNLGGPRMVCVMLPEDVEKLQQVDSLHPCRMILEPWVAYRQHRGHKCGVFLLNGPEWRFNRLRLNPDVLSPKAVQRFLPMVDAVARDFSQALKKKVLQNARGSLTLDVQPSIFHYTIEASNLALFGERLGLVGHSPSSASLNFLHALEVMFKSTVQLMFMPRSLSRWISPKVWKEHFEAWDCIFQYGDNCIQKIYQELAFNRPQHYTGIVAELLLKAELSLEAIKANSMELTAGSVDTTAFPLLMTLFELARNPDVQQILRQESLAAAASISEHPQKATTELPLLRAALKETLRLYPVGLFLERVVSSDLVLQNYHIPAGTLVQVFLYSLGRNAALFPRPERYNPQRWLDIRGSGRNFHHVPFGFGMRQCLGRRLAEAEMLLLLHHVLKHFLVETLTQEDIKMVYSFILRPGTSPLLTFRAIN
# Procedure: Methods for V79-Human-CYP11B2 and V79-Human-CYP11B1 Assays: V79 cell lines stably expressing the either the human CYP11B2 or the human CYP11B1 enzyme were generated using a standard transfection protocol. V79 cells were transfected with plasmids pTriEx3-Hygro-hCyp11B2 or pTriEx3-Hygro-hCyp11B1 using Lipofectamine2000 reagent. V79 cells that stably express the human CYP11B2 or human CYP11B1 enzyme were selected for and maintained in DMEM supplemented with 10% FBS and 400 μg/mL hygromycin for ˜2 weeks. Single cell clones were generated by […] in DMEM supplemented with 10% FBS and 400 μg/mL hygromycin until single colonies were obtained. Clones V79-hCYP11B2-CLE9 and V79-hCYP11B1-8C7, were determined to produce the most aldosterone and cortisol, respectively, and were selected for inhibitor screening. For testing of inhibitors, cells were harvested at 80% confluency with 0.5% Trypsan-EDTA, washed once in PBS, and reconstituted in DMEM 0.1% BSA media at a cell concentration of 400,000 cells/mL. 25 μl of cells were added to a 384 well tissue culture treated plate and mixed with 0.25 μl of inhibitor or DMSO (1% final DMSO concentration) for 1 hour at 37° C., 5% CO2. After pre-incubation with inhibitor, the reaction was initiated by adding 5 μl of substrate (final concentration of 125 nM 11-deoxycorticosterone for the CYP11B2 assay or 250 nM 11-deoxycortisol for the CYP11B1 assay). The reaction was carried out for 3 hours at 37° C., 5% CO2 and was stopped by harvesting the supernatants. The amount of product in the supernatant (aldosterone for CYP11B2 assay and cortisol for the CYP11B1 assay) was measured using HTRF-based assay kit (Aldosterone HTRF-CisBio#64ALDPEB, Cortisol HTRF-CisBio #63IDC002-CORT). IC50's for the inhibitor were determined by plotting the amount of product formed against the concentration of inhibitor using sigmoidal dose-response curve (variable slope) fit in GraphPad.
fold greater inhibition of CYP11B2 as compared to CYP11B1 (selectivity) (human CYP11B1),IC50 (human CYP11B2) [µM],Structure (SMILES)
at least 3 fold,< 1,"N#Cc1cncc(-c2nc3ccc(F)cc3n2C2CC2)c1 [Example 45, 5-(1-cyclopropyl-6-fluoro-1H-benzimidazol-2-yl)pyridine-3-carbonitrile]"
at least 3 fold,< 1,"CC(C)n1c(-c2cncc(F)c2)nc2ccc(F)cc21 [Example 15, 6-fluoro-2-(5-fluoropyridin-3-yl)-1-(propan-2-yl)-1H-benzimidazole]"
